Tested on: Cel-cest-1.2 mutants
Assay: Comparative metabolomics (HPLC-HRMS) of Cel-cest-1.2 mutants versus wildtype C. elegans (N2)
Conditions: for Cel-cest-1.2 fold over WT (N2), average of 4 repeats: abundance of the metabolite in Cel-cest-1.2 mutants compared to C. elegans wildtype (N2); for production in the Cel-cest-1.2 mutant (in words): relative to wildtype C. elegans

SMILES: Nc1ccccc1C(=O)C[C@@H]1O[C@H](COC(=O)Cc2ccc(O)cc2)[C@@H](O)[C@H](OP(=O)(O)O)[C@H]1OC(=O)c1ccccc1N [angl#50]
- Cel-cest-1.2 fold over WT (N2), average of 4 repeats: 0.007479

SMILES: Nc1ccccc1C(=O)C[C@@H]1O[C@H](COC(=O)c2ccc[nH]2)[C@@H](O)[C@H](OP(=O)(O)O)[C@H]1OC(=O)c1ccccc1N [angl#51]
- Cel-cest-1.2 fold over WT (N2), average of 4 repeats: 0.005817

SMILES: Nc1ccccc1C(=O)C[C@@H]1O[C@H](COC(=O)c2ccc[nH]2)[C@@H](O)[C@H](OP(=O)(O)O)[C@H]1OC(=O)c1ccccc1N [angl#52]
- Cel-cest-1.2 fold over WT (N2), average of 4 repeats: 0.006179

SMILES: Nc1ccccc1C(=O)OC[C@H]1O[C@@H](OC(=O)c2ccccc2N)[C@H](OC(=O)Cc2ccccc2)[C@@H](OP(=O)(O)O)[C@@H]1O [angl#56]
- Cel-cest-1.2 fold over WT (N2), average of 4 repeats: 0.01078

SMILES: Nc1ccccc1C(=O)C[C@@H]1O[C@H](COC(=O)c2ccccc2)[C@@H](O)[C@H](OP(=O)(O)O)[C@H]1OC(=O)c1ccccc1 [angl#70]
- Cel-cest-1.2 fold over WT (N2), average of 4 repeats: 0.0005523

SMILES: Nc1ccccc1C(=O)O[C@@H]1O[C@H](CO)[C@@H](O)[C@H](OP(=O)(O)O)[C@H]1OC(=O)c1cccnc1 [angl#101]
- Cel-cest-1.2 fold over WT (N2), average of 4 repeats: 0.01275

SMILES: Nc1ccccc1C(=O)O[C@@H]1O[C@H](CO)[C@@H](O)[C@H](OP(=O)(O)O)[C@H]1OC(=O)c1ccccc1 [angl#161]
- Cel-cest-1.2 fold over WT (N2), average of 4 repeats: 0.00178

SMILES: Nc1ccccc1C(=O)O[C@@H]1O[C@H](CO)[C@@H](O)[C@H](OP(=O)(O)O)[C@H]1OC(=O)c1ccccc1N [angl#401]
- Cel-cest-1.2 fold over WT (N2), average of 4 repeats: 0.01012

SMILES: C/C=C(\C)C(=O)O[C@H]1[C@H](OC(=O)c2ccccc2N)O[C@H](CO)[C@@H](O)[C@@H]1OP(=O)(O)O [angl#601]
- Cel-cest-1.2 fold over WT (N2), average of 4 repeats: 0.009854

SMILES: CC(C)CC(=O)OC1C(OC(=O)c2ccccc2)OC(COC(=O)c2cccnc2)C(O)C1OP(=O)(O)O (stereo not drawn) [bzglu#4]
- Cel-cest-1.2 fold over WT (N2), average of 4 repeats: 0.003387

SMILES: O=C(C[C@@H]1O[C@H](COC(=O)c2cccnc2)[C@@H](O)[C@H](OP(=O)(O)O)[C@H]1OC(=O)c1cccnc1)c1ccccc1 [bzglu#6]
- Cel-cest-1.2 fold over WT (N2), average of 4 repeats: 0.01305

SMILES: CC(C)CC(=O)OC[C@H]1O[C@@H](CC(=O)c2ccccc2)[C@H](OC(=O)CC(C)C)[C@@H](OP(=O)(O)O)[C@@H]1O [bzglu#8]
- Cel-cest-1.2 fold over WT (N2), average of 4 repeats: 0.0006248

SMILES: O=C(C[C@@H]1O[C@H](COC(=O)c2ccc[nH]2)[C@@H](O)[C@H](OP(=O)(O)O)[C@H]1OC(=O)c1ccc[nH]1)c1ccccc1 [bzglu#9]
- Cel-cest-1.2 fold over WT (N2), average of 4 repeats: 0.0006298

SMILES: O=C(C[C@@H]1O[C@H](COC(=O)c2ccc[nH]2)[C@@H](O)[C@H](OP(=O)(O)O)[C@H]1OC(=O)c1ccc[nH]1)c1ccccc1 [bzglu#10]
- Cel-cest-1.2 fold over WT (N2), average of 4 repeats: 0.000478

SMILES: O=C(OCC1OC(OC(=O)c2ccccc2)C(OC(=O)c2ccc[nH]2)C(OP(=O)(O)O)C1O)c1cccnc1 (stereo not drawn) [bzglu#12]
- Cel-cest-1.2 fold over WT (N2), average of 4 repeats: 0.007016

SMILES: O=C(OCC1OC(OC(=O)c2ccccc2)C(OC(=O)c2ccc[nH]2)C(OP(=O)(O)O)C1O)c1cccnc1 (stereo not drawn) [bzglu#13]
- Cel-cest-1.2 fold over WT (N2), average of 4 repeats: 0.003747

SMILES: C/C=C(\C)C(=O)OC[C@H]1O[C@@H](OC(=O)c2ccccc2)[C@H](O)[C@@H](OP(=O)(O)O)[C@@H]1O [bzglu#201]
- Cel-cest-1.2 fold over WT (N2), average of 4 repeats: 0.001807

SMILES: C[C@H](CC/C=C/C(=O)OC[C@H]1O[C@@H](n2ccc3cc(O)ccc32)[C@H](OC(=O)c2ccccc2)[C@@H](OP(=O)(O)O)[C@@H]1O)O[C@@H]1O[C@@H](C)[C@H](O)C[C@H]1O [higlas#7]
- Cel-cest-1.2 fold over WT (N2), average of 4 repeats: 0.0002976

SMILES: O=C(OC[C@H]1O[C@@H](n2ccc3cc(O)ccc32)[C@H](OC(=O)c2ccccc2)[C@@H](OP(=O)(O)O)[C@@H]1O)c1cccnc1 [higlu#3]
- Cel-cest-1.2 fold over WT (N2), average of 4 repeats: 0.001182

SMILES: O=C(OC[C@H]1O[C@@H](n2ccc3cc(O)ccc32)[C@H](OC(=O)c2cccnc2)[C@@H](OP(=O)(O)O)[C@@H]1O)c1ccccc1 [higlu#4]
- Cel-cest-1.2 fold over WT (N2), average of 4 repeats: 0.004004

SMILES: C[C@H](CCCCC(=O)OC[C@H]1O[C@@H](n2ccc3ccccc32)[C@H](OC(=O)c2ccccc2)[C@@H](OP(=O)(O)O)[C@@H]1O)O[C@@H]1O[C@@H](C)[C@H](O)C[C@H]1O [iglas#101]
- Cel-cest-1.2 fold over WT (N2), average of 4 repeats: 0.0007881

SMILES: C[C@H](CCCC/C=C/C(=O)OC[C@H]1O[C@@H](n2ccc3ccccc32)[C@H](OC(=O)c2ccccc2)[C@@H](OP(=O)(O)O)[C@@H]1O)O[C@@H]1O[C@@H](C)[C@H](O)C[C@H]1O [iglas#301]
- Cel-cest-1.2 fold over WT (N2), average of 4 repeats: 0.0005506

SMILES: C[C@H](CC/C=C/C(=O)OC[C@H]1O[C@@H](n2ccc3ccccc32)[C@H](OC(=O)c2ccccc2)[C@@H](OP(=O)(O)O)[C@@H]1O)O[C@@H]1O[C@@H](C)[C@H](O)C[C@H]1O [iglas#701]
- Cel-cest-1.2 fold over WT (N2), average of 4 repeats: 0.0003478

SMILES: C[C@H](CCCCC(=O)OC[C@H]1O[C@@H](n2ccc3ccccc32)[C@H](OC(=O)c2ccccc2)[C@@H](OP(=O)(O)O)[C@@H]1O)O[C@@H]1O[C@@H](C)[C@H](O)C[C@H]1O [iglas#702]
- Cel-cest-1.2 fold over WT (N2), average of 4 repeats: 0.0003696

SMILES: OC[C@H]1O[C@@H](n2ccc3ccccc32)[C@H](O)[C@@H](O)[C@@H]1O [iglu #1]
- production in the Cel-cest-1.2 mutant (in words): not abolished

SMILES: Nc1ccccc1C(=O)OC[C@H]1O[C@@H](n2ccc3ccccc32)[C@H](O)[C@@H](OP(=O)(O)O)[C@@H]1O [iglu #4]
- production in the Cel-cest-1.2 mutant (in words): not affected

SMILES: O=C(Cc1ccccc1)O[C@@H]1[C@@H](OP(=O)(O)O)[C@H](O)[C@@H](CO)O[C@H]1n1ccc2ccccc21 [iglu#16]
- Cel-cest-1.2 fold over WT (N2), average of 4 repeats: 0.000533

SMILES: CCC(=O)OC1C(OP(=O)(O)O)C(O)C(COC(=O)c2cccnc2)OC1n1ccc2ccccc21 (stereo not drawn) [iglu#19]
- Cel-cest-1.2 fold over WT (N2), average of 4 repeats: 0.00262

SMILES: CCC(=O)OC1C(OP(=O)(O)O)C(O)C(COC(=O)c2cccnc2)OC1n1ccc2ccccc21 (stereo not drawn) [iglu#21]
- Cel-cest-1.2 fold over WT (N2), average of 4 repeats: 0.0136

SMILES: C/C=C(\C)C(=O)OC[C@H]1O[C@@H](n2ccc3ccccc32)[C@H](OC(=O)c2ccc[nH]2)[C@@H](OP(=O)(O)O)[C@@H]1O [iglu#22]
- Cel-cest-1.2 fold over WT (N2), average of 4 repeats: 0.0001619

SMILES: CCC(=O)OC1C(OP(=O)(O)O)C(O)C(COC(=O)c2cccnc2)OC1n1ccc2ccccc21 (stereo not drawn) [iglu#23]
- Cel-cest-1.2 fold over WT (N2), average of 4 repeats: 0.001825

SMILES: CCC(=O)OC[C@H]1O[C@@H](n2ccc3ccccc32)[C@H](OC(=O)c2ccccc2N)[C@@H](OP(=O)(O)O)[C@@H]1O [iglu#24]
- Cel-cest-1.2 fold over WT (N2), average of 4 repeats: 0.0007803

SMILES: CCC(=O)OC1C(OP(=O)(O)O)C(O)C(COC(=O)c2cccnc2)OC1n1ccc2ccccc21 (stereo not drawn) [iglu#25]
- Cel-cest-1.2 fold over WT (N2), average of 4 repeats: 0.004462

SMILES: O=C(OC[C@H]1O[C@@H](n2ccc3ccccc32)[C@H](OC(=O)c2ccc[nH]2)[C@@H](OP(=O)(O)O)[C@@H]1O)c1ccc[nH]1 [iglu#27]
- Cel-cest-1.2 fold over WT (N2), average of 4 repeats: 0.000146

SMILES: C/C=C(\C)C(=O)OC1C(OP(=O)(O)O)C(O)C(COC(=O)c2ccccc2)OC1n1ccc2ccccc21 (stereo not drawn) [iglu#28]
- Cel-cest-1.2 fold over WT (N2), average of 4 repeats: 0.00009358

SMILES: C/C=C(\C)C(=O)OC[C@H]1O[C@@H](n2ccc3ccccc32)[C@H](OC(=O)c2cccnc2)[C@@H](OP(=O)(O)O)[C@@H]1O [iglu#30]
- Cel-cest-1.2 fold over WT (N2), average of 4 repeats: 0.0002837

SMILES: C/C=C(\C)C(=O)O[C@@H]1[C@@H](OP(=O)(O)O)[C@H](O)[C@@H](COC(=O)c2cccnc2)O[C@H]1n1ccc2ccccc21 [iglu#31]
- Cel-cest-1.2 fold over WT (N2), average of 4 repeats: 0.001403

SMILES: CC(C)CC(=O)OC[C@H]1O[C@@H](n2ccc3ccccc32)[C@H](OC(=O)c2ccccc2)[C@@H](OP(=O)(O)O)[C@@H]1O [iglu#32]
- Cel-cest-1.2 fold over WT (N2), average of 4 repeats: 0.001437

SMILES: CC(C)CC(=O)OC[C@H]1O[C@@H](n2ccc3ccccc32)[C@H](OC(=O)c2cccnc2)[C@@H](OP(=O)(O)O)[C@@H]1O [iglu#34]
- Cel-cest-1.2 fold over WT (N2), average of 4 repeats: 0.003863

SMILES: O=C(OC[C@H]1O[C@@H](n2ccc3ccccc32)[C@H](OC(=O)c2ccccc2)[C@@H](OP(=O)(O)O)[C@@H]1O)c1cccnc1 [iglu#36]
- Cel-cest-1.2 fold over WT (N2), average of 4 repeats: 0.003368

SMILES: O=C(OC[C@H]1O[C@@H](n2ccc3ccccc32)[C@H](OC(=O)c2ccc[nH]2)[C@@H](OP(=O)(O)O)[C@@H]1O)c1ccccc1 [iglu#37]
- Cel-cest-1.2 fold over WT (N2), average of 4 repeats: 0.0001169

SMILES: O=C(OC[C@H]1O[C@@H](n2ccc3ccccc32)[C@H](OC(=O)c2ccc[nH]2)[C@@H](OP(=O)(O)O)[C@@H]1O)c1ccccc1 [iglu#38]
- Cel-cest-1.2 fold over WT (N2), average of 4 repeats: 0.0000986

SMILES: O=C(O[C@@H]1[C@@H](OP(=O)(O)O)[C@H](O)[C@@H](COC(=O)c2ccc[nH]2)O[C@H]1n1ccc2ccccc21)c1cccnc1 [iglu#39]
- Cel-cest-1.2 fold over WT (N2), average of 4 repeats: 0.0003144

SMILES: O=C(O[C@@H]1[C@@H](OP(=O)(O)O)[C@H](O)[C@@H](COC(=O)c2ccc[nH]2)O[C@H]1n1ccc2ccccc21)c1cccnc1 [iglu#40]
- Cel-cest-1.2 fold over WT (N2), average of 4 repeats: 0.000169

SMILES: C/C=C(\C)C(=O)O[C@@H]1[C@@H](OP(=O)(O)O)[C@H](O)[C@@H](COC(=O)c2ccccc2N)O[C@H]1n1ccc2ccccc21 [iglu#42]
- Cel-cest-1.2 fold over WT (N2), average of 4 repeats: 0.001624

SMILES: CC(C)CC(=O)O[C@@H]1[C@@H](OP(=O)(O)O)[C@H](O)[C@@H](COC(=O)/C=C/c2c[nH]cn2)O[C@H]1n1ccc2ccccc21 [iglu#44]
- Cel-cest-1.2 fold over WT (N2), average of 4 repeats: 0.0006512

SMILES: CC(C)CC(=O)OC[C@H]1O[C@@H](n2ccc3ccccc32)[C@H](OC(=O)/C=C/c2cnc[nH]2)[C@@H](OP(=O)(O)O)[C@@H]1O [iglu#45]
- Cel-cest-1.2 fold over WT (N2), average of 4 repeats: 0.001089

SMILES: CC(C)CC(=O)OC[C@H]1O[C@@H](n2ccc3ccccc32)[C@H](OC(=O)/C=C/c2cnc[nH]2)[C@@H](OP(=O)(O)O)[C@@H]1O [iglu#46]
- Cel-cest-1.2 fold over WT (N2), average of 4 repeats: 0.0008888

SMILES: CCC(O)C(=O)OC[C@H]1O[C@@H](n2ccc3ccccc32)[C@H](OC(=O)c2ccccc2N)[C@@H](OP(=O)(O)O)[C@@H]1O (stereo partly drawn) [iglu#47]
- Cel-cest-1.2 fold over WT (N2), average of 4 repeats: 0.0007468

SMILES: O=C(OC[C@H]1O[C@@H](n2ccc3ccccc32)[C@H](OC(=O)c2ccccc2)[C@@H](OP(=O)(O)O)[C@@H]1O)c1ccccc1 [iglu#50]
- Cel-cest-1.2 fold over WT (N2), average of 4 repeats: 0.00005754

SMILES: O=C(OC[C@H]1O[C@@H](n2ccc3ccccc32)[C@H](OC(=O)c2ccccc2)[C@@H](OP(=O)(O)O)[C@@H]1O)c1cccnc1 [iglu#52]
- Cel-cest-1.2 fold over WT (N2), average of 4 repeats: 0.00007449
